Measurements reported in PubChem BioAssay AID1671195 (Yale University, 2021)

Aim: 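Regulators of LDL receptor activity judged by labelled LDL uptake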 (primary screen)
Cells: human Huh7 hepatoma cells
Knock-down reagent: siRNA pool against human genes, 18 nM
Duration: about 2 to 2.5 days of knockdown, then 8 h LDL uptake
Challenge: DiI-labelled LDL at 30 µg/ml for 8 h, in lipoprotein-deficient serum medium
Measured: 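Fluorescent LDL signal imaged in cells, scaled to the plate median, robust z-score for each replicate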
Direction: robust z-score: higher = more LDL uptake after knockdown
Active means: 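a gene counts as active if at least two replicate z-scores exceed ±2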
This is a random part of about 22,000 reagents. About 1,510 of all reagents (6.9%) count as active. 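Active includes knockdowns raising or lowering LDL uptake; positive z-scores mean more uptake, negative mean less.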

| robust z-score, replicate 1 | robust z-score, replicate 2 | robust z-score, replicate 3 | outcome | gene |
| --- | --- | --- | --- | --- |
| 0.502 | -0.0689 | -0.0328 | inactive | OR2AT4 |
| -0.498 | -0.945 | -0.367 | inactive | OR52N4 |
| 1.07 | 1.24 | 1.09 | inactive | TP73 |
| 2.24 | 2.35 | 1.43 | active | THADA |
| 1.27 | 0.825 | 0.238 | inactive | OR52M1 |
| 0.403 | 0.00249 | 0.945 | inactive | CD40LG |
| 0.524 | 0.783 | -0.476 | inactive | MYF5 |
| -0.052 | 0.0235 | 0.785 | inactive | STRADBP1 |
| -0.863 | -0.0123 | -1 | inactive | GSTM2 |
| -0.723 | -1.11 | -0.585 | inactive | KCNH8 |
| 1.19 | 1.08 | 1.53 | inactive | ALPL |
| -0.295 | -1.3 | -0.82 | inactive | WDR46 |
| -0.202 | 1.04 | -0.367 | inactive | CTXN1 |
| -0.643 | -0.43 | -0.105 | inactive | SLC22A13 |
| 0.396 | 0.339 | 0.119 | inactive | TMEM72 |
| -0.0725 | -0.0103 | 0.134 | inactive | CPNE6 |
| -0.849 | -1.1 | -1.16 | inactive | METTL26 |
| 1.17 | -0.593 | -0.27 | inactive | LOC391429 (retired record) |
| -0.155 | -1.04 | -0.441 | inactive | MRPL4 |
| 0.715 | 1.51 | 0.625 | inactive | ZDHHC16 |
| 2.04 | 1.14 | -0.5 | inactive | COL8A1 |
| -0.239 | 0.745 | 0.0777 | inactive | QRFPR |
| -0.216 | -0.243 | -0.337 | inactive | DPYS |
| 0.627 | 0.93 | 1.28 | inactive | MGAM2 |
| -0.281 | 0.428 | -0.423 | inactive | B3GAT3P1 |
| -1.17 | -1.59 | -1.01 | inactive | METAP1D |
| -1.88 | -2.05 | -1.8 | inactive | KCNJ12 |
| 1.58 | 1.71 | 1.99 | inactive | MKKS |
| 1.43 | 0.844 | 0.969 | inactive | GPR35 |
| 0.251 | -0.182 | 0.127 | inactive | ORC1 |
| 1.91 | 1.83 | 2.27 | active | SCYL2 |
| 2.53 | 3.69 | 2.88 | active | BTBD16 |
| -0.69 | -0.31 | -1.81 | inactive | G2E3 |
| 0.0659 | 0.332 | 0.642 | inactive | CXCL16 |

Part of the list above, reduced to “robust z-score, replicate 3”:
KCNH8 = -0.585
ALPL = 1.53
WDR46 = -0.82
CTXN1 = -0.367
SLC22A13 = -0.105
TMEM72 = 0.119

Further entries follow:
| robust z-score, replicate 1 | robust z-score, replicate 2 | robust z-score, replicate 3 | outcome | gene |
| --- | --- | --- | --- | --- |
| -0.169 | 0.186 | 0.0256 | inactive | PLA2G2D |
| 1.51 | 2.29 | 1.88 | inactive | ASF1B |
| -0.0715 | 0.2 | 0.273 | inactive | GPATCH2L |
| -0.326 | 0.215 | -0.503 | inactive | GRID1 |
| 1.11 | 0.541 | 0.625 | inactive | ZBTB20 |
| 1.63 | 1.22 | 0.554 | inactive | CDK7 |
| 1.06 | -0.347 | 0.988 | inactive | SLC47A1 |
| -1.37 | 0.232 | -0.142 | inactive | COL5A3 |
| -0.275 | -1.7 | -0.559 | inactive | EAPP |
| 0.714 | 1.16 | 0.834 | inactive | NKG7 |
| 1.76 | 1.52 | 1.14 | inactive | NFE2L1 |
| -1.3 | -1.09 | -1.19 | inactive | LRIG3 |
| 1.55 | 1.96 | 2.08 | inactive | OR5M8 |
| 1.87 | -1.06 | -0.138 | inactive | GMEB1 |
| 1.43 | 1.92 | 1.45 | inactive | TNFRSF18 |
| 2.06 | 1.19 | 1.89 | inactive | CYB561A3 |
| 0.717 | 1 | 0.67 | inactive | HSPH1 |
| -0.982 | -0.833 | -2.14 | inactive | HYPK |
| 0.0218 | -0.035 | 0.119 | inactive | AGPS-DT |
| 0.0166 | -1.45 | 2.28 | inactive | MTFR1L |
| 0.22 | 0.298 | -0.289 | inactive | SCAI |
| 0.027 | 0.728 | 0.18 | inactive | LPAR6 |
| -1.59 | -0.769 | 0.331 | inactive | MACROH2A2 |
| -0.869 | -1.43 | -2.2 | inactive | SNAP91 |
| -0.8 | -0.49 | -1.03 | inactive | DOC2B |
| 0.204 | 0.921 | 0.0874 | inactive | PIGL |
| 3.4 | -0.103 | 1.41 | inactive | STOML1 |
| 0.149 | 0.516 | 0.781 | inactive | MBTPS1 |
| 0.00648 | 0.282 | 0.585 | inactive | CRLS1 |
| -1.54 | -1.83 | -1.68 | inactive | MRPS11 |
| 0.358 | 0.136 | 1.53 | inactive | TRIM40 |
| 0.315 | 0.177 | 0.381 | inactive | LOC144762 (retired record) |
| -0.428 | -0.835 | -0.618 | inactive | KLK1 |
| 0.206 | 2.5 | 0.118 | inactive | PRORP |
